The text below walks through data of PMC10279913.

Protein sequences, listed by entry. Tags and fused reporters are not part of them. Lines headed by an entry give the natural chain unless they say otherwise; changes in a name come on top.
UniProt Q9N536: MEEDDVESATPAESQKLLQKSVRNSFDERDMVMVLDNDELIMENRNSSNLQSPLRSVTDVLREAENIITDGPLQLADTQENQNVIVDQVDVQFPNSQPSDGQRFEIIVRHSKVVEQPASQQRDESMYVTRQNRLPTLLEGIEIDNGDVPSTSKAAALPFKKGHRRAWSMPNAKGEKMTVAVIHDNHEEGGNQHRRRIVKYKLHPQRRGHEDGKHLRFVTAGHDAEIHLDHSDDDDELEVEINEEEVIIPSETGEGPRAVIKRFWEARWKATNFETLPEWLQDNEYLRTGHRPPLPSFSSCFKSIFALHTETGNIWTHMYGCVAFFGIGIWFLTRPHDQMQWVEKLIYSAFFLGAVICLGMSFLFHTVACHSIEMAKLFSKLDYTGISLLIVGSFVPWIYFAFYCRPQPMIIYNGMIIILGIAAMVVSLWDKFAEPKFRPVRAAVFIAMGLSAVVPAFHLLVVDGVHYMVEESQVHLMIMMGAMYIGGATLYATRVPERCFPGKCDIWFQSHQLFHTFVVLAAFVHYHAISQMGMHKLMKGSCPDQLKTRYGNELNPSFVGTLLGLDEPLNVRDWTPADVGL

B1: Dolichyl-diphosphooligosaccharide–protein glycosyltransferase subunit 1 (protein, UniProt Q9GZH4 16-586)
chain: EDAWKAANVDRTIDATSQIVKVSTLYSFENVGNGPQSKVLIALSKEESATLSFISAGIDGSKGKLKISEKPAEKDLAVYEVDLRTPVAKGAKVTIRINLRITQVLEPLPSKIQQSDSQFVVLHTSAYVPSLYETVTQKTTIRTTQGGKLLSATTVSPSKQETERVIYGPYVNIPAFETKPVKVHYENNSPFVIATIVERFIEVSHWGNIAVEEYIELVHKGAELDGPFSRIDYQMDRRGRRQPALQQFTTVLPAQAKDIYYRDEIGNISTSAVRIRADSVDVEIRPRFPLFGGWKTSYVIGYNLPSEEYLYSKGNQYALKTKLFDHVFNDIVVEKLRTKVLLPEHVKRVKVATPYAVDRRPEELKPTYLDTTGRLVLVLEKENIVPDHSQFFTVTYEFEFVDMLREPLLASAFFFSLFFVIIVYSRFDFTISSDPAKDAEERSQIILGNLAKSVDSKQSAYEDLIEASQQYKSTKNDADLQEAKKTFIAARNQENSTLTDKIATLKTDSGASAAEKASELLKYDKTVFDAVDNYLKAVEKSTTKTAGTEEQQFLNKVKDARNRADSVLASI
B2: 40S ribosomal protein S27 (protein, UniProt Q9TXP0 1-83)
chain: MPLAVDLLHPEPQREIRCHKLKRLVQHPNSYFMDVKCSGCFKISTVFSHATTVVVCVGCNTVLCQPTRGKAKLTEGCSFRKKQ
B3: Putative H/ACA ribonucleoprotein complex subunit 2-like protein (protein, UniProt Q9XXD4 1-163)
chain: MGKRNLDETMNESTVSEANGDATAPTTEKDEYQALCELVNPIAQPLANRKLAKKVYKLIKKASAGDKTLREGIKDVQKELRRNEKGICILAGNVSPIDVYSHIPGICEEKEIPYVYIPSREQLGLAVGHRRPSILIFVKPSGDFKELYDEVAEALRHLTVEAA

Results are given in words; binding and its absence hold for the method and conditions named. Binding seen in cells or lysates may run through a third protein. These calls come from enrichment with a bait or labelling near it, and not all partners need be listed.

For the experiment, the target named is HA::PAQR-2 (C. elegans) (UniProt Q9N536). Briefly: affinity purification with mass spectrometry; anti-HA immunoprecipitation (rabbit mAb C29F4 + protein A-agarose, 1 h, 4 °C) from lysates of whole worms carrying HA::PAQR-2; 25 mM Tris pH 7.5, 300 mM NaCl, 0.1% NP-40, no protease inhibitor; eluted with 0.2 M glycine pH 2.5; 2 IPs; control: worms without HA-tagged protein.
Regarding B1, the binding entry was “binds”.
For B2, the binding entry is recorded as “binds”.
For B3, the binding entry is “binds”.
